Read-outs that look alike come from different tables or passages of the source. Results are given in words; binding and its absence hold for the method and conditions named. Binding seen in cells or lysates may run through a third protein. These calls come from enrichment with a bait or labelling near it, and not all partners need be listed. For part of these data: A no says only that the protein was not detected with the bait. Where a sequence is shown, tags or fusion partners need not be part of it.

Chains of the proteins cited; added tags and fusions are not shown.
UniProt Q24311: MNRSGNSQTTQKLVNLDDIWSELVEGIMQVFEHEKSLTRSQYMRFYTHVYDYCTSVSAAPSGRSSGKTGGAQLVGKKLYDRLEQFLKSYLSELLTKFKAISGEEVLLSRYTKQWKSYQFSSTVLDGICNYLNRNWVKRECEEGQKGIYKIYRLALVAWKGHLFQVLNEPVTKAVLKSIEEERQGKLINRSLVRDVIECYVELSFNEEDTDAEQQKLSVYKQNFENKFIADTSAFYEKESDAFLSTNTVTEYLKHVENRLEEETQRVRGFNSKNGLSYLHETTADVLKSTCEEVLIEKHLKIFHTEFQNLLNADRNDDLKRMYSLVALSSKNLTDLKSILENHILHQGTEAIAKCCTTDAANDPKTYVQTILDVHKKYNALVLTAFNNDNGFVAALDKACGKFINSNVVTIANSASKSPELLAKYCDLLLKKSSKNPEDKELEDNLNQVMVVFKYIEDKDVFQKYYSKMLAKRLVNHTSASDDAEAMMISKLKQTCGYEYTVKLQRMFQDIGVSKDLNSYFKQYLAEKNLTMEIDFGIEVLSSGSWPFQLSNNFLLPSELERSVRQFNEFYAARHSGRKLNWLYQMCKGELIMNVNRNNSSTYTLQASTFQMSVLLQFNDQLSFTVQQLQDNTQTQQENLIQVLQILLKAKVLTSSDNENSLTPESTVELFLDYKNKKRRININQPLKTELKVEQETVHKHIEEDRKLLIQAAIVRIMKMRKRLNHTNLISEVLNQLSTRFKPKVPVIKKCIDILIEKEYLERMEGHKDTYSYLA
UniProt Q9Y0H4: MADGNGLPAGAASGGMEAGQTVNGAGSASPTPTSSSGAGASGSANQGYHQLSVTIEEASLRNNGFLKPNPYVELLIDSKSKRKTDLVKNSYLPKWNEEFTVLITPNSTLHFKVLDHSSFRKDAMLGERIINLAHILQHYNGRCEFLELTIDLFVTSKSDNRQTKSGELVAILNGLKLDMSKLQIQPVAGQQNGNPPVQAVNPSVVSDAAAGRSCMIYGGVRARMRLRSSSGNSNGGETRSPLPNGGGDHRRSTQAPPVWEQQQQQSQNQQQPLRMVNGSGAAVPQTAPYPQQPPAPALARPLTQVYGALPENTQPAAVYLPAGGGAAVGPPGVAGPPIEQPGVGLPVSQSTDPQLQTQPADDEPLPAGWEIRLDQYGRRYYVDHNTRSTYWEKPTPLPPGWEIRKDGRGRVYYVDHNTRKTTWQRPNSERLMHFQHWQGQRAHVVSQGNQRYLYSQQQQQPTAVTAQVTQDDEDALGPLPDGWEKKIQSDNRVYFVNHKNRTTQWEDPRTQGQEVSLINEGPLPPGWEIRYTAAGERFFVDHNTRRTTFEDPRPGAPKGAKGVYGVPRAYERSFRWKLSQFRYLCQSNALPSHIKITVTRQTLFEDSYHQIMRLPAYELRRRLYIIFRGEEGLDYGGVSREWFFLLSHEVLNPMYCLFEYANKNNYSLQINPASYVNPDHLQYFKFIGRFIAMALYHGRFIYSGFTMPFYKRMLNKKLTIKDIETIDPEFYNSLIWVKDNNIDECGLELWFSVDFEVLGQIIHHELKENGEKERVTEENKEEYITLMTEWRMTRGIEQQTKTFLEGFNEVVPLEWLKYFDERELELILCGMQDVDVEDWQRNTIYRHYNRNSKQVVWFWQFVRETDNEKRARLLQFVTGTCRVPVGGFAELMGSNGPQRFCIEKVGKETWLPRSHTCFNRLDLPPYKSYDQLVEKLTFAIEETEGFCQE

Among the data in PMC6176938 are binding values, retold here.

Holding throughout (assay): affinity purification with mass spectrometry; GST-Arl8Δ17 (Q75L or T34N) on Glutathione-Sepharose beads; clarified S2 cell cytosol prepared without detergent (20 mM Tris-HCl pH 8, 110 mM KCl, 5 mM MgCl2, 5 mM β-mercaptoethanol), with GDP or GTPγS, 4°C; eluted with high salt and the opposite nucleotide; only the target purified
Test [1] has as its target T1, GST-Arl8Δ17 Q75L (GTP-locked form of Drosophila Arl8) (Drosophila melanogaster) (UniProt Q9VHV5).
T1 sequence: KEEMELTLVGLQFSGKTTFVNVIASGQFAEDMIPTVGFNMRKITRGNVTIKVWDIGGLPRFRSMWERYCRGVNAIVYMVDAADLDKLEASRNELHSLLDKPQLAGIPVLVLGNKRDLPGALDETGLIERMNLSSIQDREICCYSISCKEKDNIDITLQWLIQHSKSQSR

Test [2] deals with T1, GST-Arl8Δ17 Q75L (GTP-locked form of Drosophila Arl8) (Drosophila melanogaster). The source holds these as a separate data set.
The target of test [3] is T2, GST-Arl8Δ17 T34N (GDP-locked form of Drosophila Arl8) (Drosophila melanogaster) (UniProt Q9VHV5).
T2 sequence: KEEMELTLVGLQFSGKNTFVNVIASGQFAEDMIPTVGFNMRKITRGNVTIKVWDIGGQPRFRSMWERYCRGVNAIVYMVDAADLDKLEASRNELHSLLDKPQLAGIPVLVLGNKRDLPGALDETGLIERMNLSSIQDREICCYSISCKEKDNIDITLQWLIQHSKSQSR

Turning to “Cullin 1 (Cul1) (from UniProt Q24311 1-774)”, in test [1], the binding result was “binds”. As to “Suppressor of deltex [Su(dx)] (from UniProt Q9Y0H4 1-949)”, in test [1], the binding entry was “binds”. On the same count and under the same terms, to Acetyl-CoA carboxylase (ACC) (enzyme) belongs “binds”; to Fatty acid synthase (FAS) (enzyme), “binds”.

B1: Vps16A (protein, UniProt Q9VHG1 1-833)
chain: MPIMYNTGEWFKVRPDYYRKVELATPDWPLDLDLEYMWVEVAPYGGPLAVTRDPTKLVPVKGNARPMIRIFDTTGREMGHILWNHGKLIAMGWSDMEELICIQENATVFVYDMFGREKESYSIGDEASVTKIVEGKVFQSSAGTGVAVMTTSGRVFLKQNSSKTERKLPDIPNSSMNCSCWEIVTEGRNSYCLLGRDREVIKLFPGETVGTITANLFEKPHERIIKISVSYNHQHLALYTNTGLLWLGSVDMRQKYCEFDTGRKDMPLQMEWIMNSDNSEADAVVISYPSYLLIVNRNADRSDFPYDPVMFLVAEMDGVRIITQSSHEIIQRLPKCVENIFAVNSQEPASYLFEAQKKFEEKSYKSDEYLSMCREKIDLAVSECIEAASYEFCPETQKSLLRTAYFGKGFIRNHNPDEYMRIMRILRVLNTLRHERIAMPITFKQFSHLNTEVILSRLVFRKHYAIAIQVAKHLNLPESWILEHWAYHKVMNDPNDTEVARKITEKFKNPSVEGISFCNIASKAHQAGRDDLAIKLLELESRASLHVPLLLKMRKFDRAVGSATQSGDTELITQVLLEMKMHMMLSNLHMTIRDHPLALNIYKKIMRESNRAGLYGIYNTEDDQKAIAEYHFQNAIETEGLESNLSMIGNAYAQGRCTLEAELCADTSRLIKLQKTLSTKYNVSLNGLSIHETIQELLLIGELKEAERIRSEFKVPDRRFWWLRILTLSSQHKWEELEKLAKSKKSPIGYDPFVEVCLKQDNVMEARKYIPRCRDNRRVVWYMRANLFNEAIDSAFEQRDVHSLFELQKNQAIVNNGTLLSKVCDCIAMLEGK
As to B1, the binding entry in test [2] is on record as “binds”.

B2: Vps11 (protein, UniProt Q8SX81 1-830)
chain: MDISVFEWKKVDLFNIIVVPFVKIPNTAEISCYCFPESKSSTEERNIKLVICDKNRNILIYLSNWECITFKSPSTRKAIALCSLTSNNSLATVTPDINNGIHIDIFDLNRLTKKQAAPIIASAYTQPSSTPLCLNADVIDDKLFALAIGLGNGDILLHYGKITKNFSANIRQHTVSGNAVNGIHFDFKTQPLDTTQIMFVTCVQGVYCFMLKEKCIMDTKFVLDNDKGNLNYRSIMCKAGGGEINDSMLVVGRADAVYCYTPEGRGPCFAIEGAKECLAWVGHYLIVGVKNSNLKQNATTLIVLDTENKIIVFQRQFQELFYVISENNFCYIVTNSGDTDACNMLMLEKNSIDVNIRLLVEKHMYNIALRLLHREGYTSSPETALVRFQYGNHLLQKGDFSRATQEFIKTIGFIKPYAVISKLLYSRYNTYLLNYLTEWKKKNESSSCHTRLIECCIKRDQIEHEMQQDDFKHYKSPAKIKHLATLSKMYFACTPSNQVPVEEEHLLHQLLEYGPASLAVDLTTYLNNITFENVKESKNILSFCSILADHNDYCAKMLAKIIEAFPVCDEKLLFYLLVFYFKLWRLDKVTSSFVSDFIKTHSLRMDKTIIVSRLYTFFNVTQRIHGHQKNTGTLHNETIDKCIENLIKNNPDVALNENLSKRSFLMMLKSSCSTEEIKAIKIKPIFKDRLLRSIVDSANELKLVENFNEKIKRSRSMLSLYTNNPIEFRNDKCDICREMLSMQSIYFLCQHSFHEECLNYKSTKRQEKFLCIICKTRNLLSPKHSSNFSCDSSDTIAVLAKIVSIGNKLETKLMIRGRQKSDGVTCNPFN
For the molecule B2, the binding entry in test [2] is recorded as “binds”; in test [3], “no binding”.

B3: Carnation (Vps33) (protein, UniProt Q9Y1I2 1-617)
chain: MFPHLKGHGQRVNLQLLQEAACRELLQQLDRIEGSKVIVLDETMIGPLDLVTRPKLFADRGIRLLALKPELHLPREVANVVYVMRPRVALMEQLAAHVKAGGRAAAGRQYHILFAPRRSCLCVSQLEVSGVLGSFGNIEELAWNYLPLDVDLVSMEMPNAFRDVSVDGDTSSLYQAAVGLVQLQRLYGRIPKIYGKGEFAHRVWEHAKQLGRDERTLYNGDKGVVDQLILLDRSIDLLSPLATQLTYEGLIDEFYGIRQNKLTLPAENFPSDGALPGGGGSGPRVEESQSLLGDTEKKTILLHSGEQLYAELRNKHFNEVTKLLARKAREIHVQMHATSQDKSVQEIKSFVENLLPQLMAQKKATSEHTAIAGLLHEQVNAVRFADDLAAEQEFMVCADIDKPSAYIEDLIACRVELNRVLRLICMQCHAASGFKEKLLNHYKRELVHVYGLEVLLTISNLEKSGLLHLQTESRAYSVLRKTLHLTVDDNVEIEPKDISYVHSFYAPLTARIVEHSLKPLGWQTLKSQINNLPGPTFEDFQAQLVGIGGRHTVTTVSEGSLLNVPRVVLVCFVGGCTFAEIAALRFLAAQEDNNVEFLIATTKVVNKHSFLDSLMSS
For B3, in test [2], the binding result was “binds”.

B4: Deep orange (Vps18) (protein, UniProt Q24314 1-1002)
chain: MDTSMPNQPKFLPRIEHNSSGATANSYVATASGNPFETDEEDEIFSRHKMVLRVPSNCTGDLMHLAVSRNWLVCLLGTPERTTLLRFFLPRAIPPGEAVLEKYLSGSGYKITRMFLDPTGHHIIIALVPKSATAGVSPDFLYIHCLESPQAQQLKVRRIEKFKDHEITAVAFNPYHGNESSTGPILLGTSRGLIFETELNPAADGHVQRKQLYDLGLGRPKYPITGLKLLRVPNSSRYIIVVTSPECIYTFQETLKAEERSLQAIFAGYVSGVQEPHCEERKTDLTFSQLRFFAPPNSKYPKQWAWLCGEGIRVGELSIEANSAATLIGNTLINLDFEKTMHLSYGERRLNTPKAFVLTEYHAVLLYADHVRAICLLNQEQVYQEAFDEARVGKPLSIERDELTGSIYVYTVKTVFNLRVTREERNVWRIYLDKGQYELATAHAAEDPEHLQLVLCQRADAAFADGSYQVAADYYAETDKSFEEVCLKFMVLPDKRPIINYVKKRLSRVTTKPMETDELDEDKMNIIKALVIWLIDLYLIQINMPDKDEEWRSSWQTEYDEFMMEAHVLSCTRQNRETVRQLIAEHADPRNMAQFAIAIGDYDEVVAQQLKAECYAEALQTLINQRNPELFYKYAPELITRLPKPTVDALMAQGSRLEVEKLVPTLIIMENREQREQTQRYLEFAIYKLNTTNDAIHNFLLHLYAEHEPKLLMKYLEIQGRDESLVHYDIYYAHKVCTDLDVKEARVFLECMLRKWISAVDLALTFDMKLAKETASRPSDSKIRRKLWLRIAYHDIKGTNDVKKALNLLKECDLLRIEDLLPFFADFEKIDNFKEAICDALRDYNQRIQELQREMAETTEQTDRVTAELQQLRQHSLTVESQDTCEICEMMLLVKPFFIFICGHKFHSDCLEKHVVPLLTKEQCRRLGTLKQQLEAEVQTQAQPQSGALSKQQAMELQRKRAALKTEIEDILAADCLFCGLLISTIDQPFVDDWEQVNVEWE
For the molecule B4, the binding entry in test [2] is recorded as “binds”; in test [3], “no binding”.

B5: Vps39 (protein, UniProt Q9VEA2 1-876)
chain: MHQAYSVHSILKQGVQIESIAAYGNHVILGTRSGQLIMYSVDEETGVDMRMFNKNFSRKPITQMEVIASENLLFVLTDLQVQVCDIRRIESNFAFMHSAPDTKGCTLFTMDVDTPKSTTGRVATVIRVCCAIRRRLVFFFWKEDKLNSLELIIELSDVPRTLCWVGHAVCVGFKDEYVVYDISGKAPKKHNLFLTSSSISRDPCICLIRNNMLGISKDSYLVVVDPSQYKESDGINNSTDVRPAAMDSNSSLTPLLWSSPLLDLVWDEPFAVGRVNNAIEVRSLVGKDTLVQTIPELQKTKFLVHADKGTIFAAATSELWCIRMVEIPIQRQQLLQQKKFQLAIELTQISDEPAADRAQTIRQIHMLYAKELFTNKEFSAAMKEFEKAAIDPYDVIRLFPNLVPEPKPGTEDVTVPTSSTPALEDSDLENAYLALIEYLAWARQREVVKLRDTKSSSKSLLEIIDTTLLKCYLQTNDSLVAPLLRLNQCHLEESEKTLKKHNKISELIILYQMKGKHKEALKLLREQASIEGSVLQGRKRTIRYLQELGGDHLPLIFEFADWVLNDNPEEGLTIFTDELIEVESLPRAKVLDFFISKHKALVIPYLEHVITEWKDGNTLLHNVLLKQYREKVQRLLAQQEKGEEVPELIPMRAKLYKMLEESNDYSPDRLLEEFPTNILLEERALILGRLKKHDNVLSIYIHVLGDVAKATAYAEAHYKEDKHIFHTLIKCILIPPTQPLYDGVPLHPDFSQVNREVALEILNTHATRIDPFEIFEHLPDDMPMPQLEKYLEKSIRKMMADKHEMQMMCGFLEAESTRLENALEEQRNISFELNESSVCSECKKRFQTQSAFVRYPNGHIVHLSCHDRLARAAAQQ
For B5, the binding result in test [2] was “binds”; in test [3] it was “no binding”.
